From US20190218261A1, “TARGETED ENHANCED DNA DEMETHYLATION” (The Jackson Laboratory, priority 2016, published 2019)
Positions count from the first letter of the chain named. Some of these results come from one statement about several compounds together.

B1: PUFa-VP64: NLS-PUFa-VP64 fusion; SEQ ID NO:32 (protein)
chain: MGILPPKKKRKVSRGRSRLLEDFRNNRYPNLQLREIAGHIMEFSQDQHGSRFIQLKLERATPAERQLVFNEILQAAYQLMVDVFGNYVIQKFFEFGSLEQKLALAERIRGHVLSLALQMYGSRVIEKALEFIPSDQQNEMVRELDGHVLKCVKDQNGNHVVQKCIECVQPQSLQFIIDAFKGQVFALSTHPYGCRVIQRILEHCLPDQTLPILEELHQHTEQLVQDQYGNYVIQHVLEHGRPEDKSKIVAEIRGNVLVLSQHKFASNVVEKCVTHASRTERAVLIDEVCTMNDGPHSALYTMMKDQYANYVVQKMIDVAEPGQRKIVMHKIRPHIATLRKYTYGKHILAKLEKYYMKNGVDLGGPAGSGRADALDDFDLDMLGSDALDDFDLDMLGSDALDDFDLDMLGSDALDDFDLDMLYID
B2: PUFb-VP64: NLS-PUFb-VP64 fusion; SEQ ID NO:33 (protein)
chain: B1 chain with S122C, E126Q, N230S, Q234E, S266N, E270Q

Test system: TetO::tdTomato transgene in HEK293T/TetO::tdTomato cell line
Experiment: TetO::tdTomato transgene activation measured by FACS
Assay type: cell-based
Details: dCas9 + PUF-VP64 + sgTetO-PBS
From the text: In particular, to test whether appending PBS to the 3′ end of sgRNA affects sgRNA function, a series of modified Tet-targeting (sgTetO) or non-targeting control (sgControl) sgRNA were generated, […] domain-binding sequence (PBS) for PUF (3-2) (also simply referred to as PUFa) [PBS32 or PBSa: SEQ ID NO:8 (5′-UGUAUgUA-3′)], PUF(6-2/7-2) (also simply referred to as PUFb) [PBS6272 or PBSb: SEQ ID NO:9 (5′-UugAUAUA-3′)].
Cells were transfected with dCas9-VP64 with the different sgRNA scaffolds, and were analyzed by fluorescent-activated cell sorting (FACS) two days after transfection (FIG. 1B).
Cell Culture for Experiments. HEK293T cells were cultivated in Dulbecco's modified Eagle's medium (DMEM)(Sigma) with 10% fetal bovine serum (FBS)(Lonza), 4% Glutamax (Gibco), 1% Sodium Pyruvate (Gibco) and penicillin-streptomycin (Gibco). Incubator conditions were 37° C. and 5% CO2. For activation experiments, cells were seeded into 12-well plates at 100,000 cells per well the day before being transfected with 200 ng of dCas9 construct, 100 ng of modified sgRNA and 100 ng of PUF-fusion with Attractene transfection reagent (Qiagen). […]
Fluorescent-Activated Cell Sorting. […] Samples were analyzed on a FACScalibur flow cytometer using CellQuest Pro software (BD Bioscience). […] were collected in each run.

Row | Molecule | copies of PBS appended to the sgRNA best able to activate the target transgene
1 | B1 | 5-10 copies
2 | B2 | 5-10 copies
